# This is one part of the list.
# Chains of the proteins cited; added tags and fusions are not shown.
# UniProt Q0JBA9, entry or part of it: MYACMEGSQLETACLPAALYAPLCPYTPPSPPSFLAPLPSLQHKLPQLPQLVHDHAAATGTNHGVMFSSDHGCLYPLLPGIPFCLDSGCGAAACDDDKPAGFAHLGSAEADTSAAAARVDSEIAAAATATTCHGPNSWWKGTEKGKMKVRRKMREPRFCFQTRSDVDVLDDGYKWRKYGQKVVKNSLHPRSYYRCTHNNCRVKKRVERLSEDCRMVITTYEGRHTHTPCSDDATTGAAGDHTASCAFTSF
# Target: OsWRKY34 (Oryza sativa, UniProt Q0JBA9 1-250)
# Test: protein-binding microarray (RPBM); PBS, 2% BSA, 51.3 ng/ul salmon testes DNA, 50 uM zinc acetate, 200 nM TF, 25 C, 1 h; high values mean tight binding
# Conditions: protein: recombinant; tags: N-terminal polyhistidine and DsRed monomer fusion (pET32a); label: CyDye5-dUTP incorporated in the synthesized complementary strand; 3' TTTTT single-stranded linker to array surface; dsDNA, one strand shown
# Procedure, shortened: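 A custom Agilent array was converted to double-stranded form by primer extension with Cy5-dUTP and blocked with 2% BSA. Protein at 200 nM in PBS with 2% BSA, salmon testes DNA and 50 µM zinc acetate was applied for 1 h at 25 °C, followed by washing. The proteins were polyhistidine–DsRed N-terminal fusions of transcription factors, expressed in E. coli BL21-CodonPlus and Ni–NTA-purified. The binding signal is per-feature fluorescence intensity (arbitrary units) from an Axon 4000B scanner.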
row,Sequence,binding signal
1,GTTGTTTTTATCTTTACTTTTTTTTTGGCAAATTTATAGCCGGAGTCACCTAGTGCAG,10400 fluorescence intensity (a.u.)
2,GACGCCTCGCTATTCTCGTCACACATTCGTTTTCCATCCTCGGAGTCACCTAGTGCAG,10700 fluorescence intensity (a.u.)
3,TTTTTTTCGCCCTTCTTTACTGGTTTTTTGTTTTCTTATCCGGAGTCACCTAGTGCAG,10500 fluorescence intensity (a.u.)
4,GACGCCCAAATCCCATCGCCTCCAATCCTGTCTACAGACGCGGAGTCACCTAGTGCAG,8780 fluorescence intensity (a.u.)
5,TCATGGGAGCAATTGCGCGATGTTTTTGTTCTTAACTTTCCGGAGTCACCTAGTGCAG,8050 fluorescence intensity (a.u.)
6,CATACCACTCCCGTCGGTTTTTCTGTCATCCTCTCTCACGCGGAGTCACCTAGTGCAG,8680 fluorescence intensity (a.u.)
7,GGAGATCCTGAGGCAGCGGGGAGAGGGGAGGTGGGCGATGCGGAGTCACCTAGTGCAG,10500 fluorescence intensity (a.u.)
8,GCCAAACTCATCACCTGCCAAGCCCATAGCATGTGTTCCACGGAGTCACCTAGTGCAG,8760 fluorescence intensity (a.u.)
9,GAGAGCTTTGCGGCGGGCATGCGGGTGGGGATTCACCGCGCGGAGTCACCTAGTGCAG,10600 fluorescence intensity (a.u.)
10,TCCTGGCCCATTTTCATTCACTCAGATGGTCTCATATATCCGGAGTCACCTAGTGCAG,8440 fluorescence intensity (a.u.)
11,CTGTTGCTCTCAACGACAATACATGTCTCCATACCACATCCGGAGTCACCTAGTGCAG,8160 fluorescence intensity (a.u.)
12,TCCCTGATCATTCCTGGCTGGTTCGTACGTTGTGATTGATCGGAGTCACCTAGTGCAG,10300 fluorescence intensity (a.u.)
13,CGGTCTCGGTCTCCGCCTCCCGCGCCGCGGCCACGCCATGCGGAGTCACCTAGTGCAG,8150 fluorescence intensity (a.u.)
14,TCTAACAATATTGTTCTGTGTCAACAAAGATCTTGTCACTCGGAGTCACCTAGTGCAG,8530 fluorescence intensity (a.u.)
15,TATCTCCTCGTCTCCTCTCTATCGCCGCACGCGCTTCCTCCGGAGTCACCTAGTGCAG,11700 fluorescence intensity (a.u.)
16,ATTTAGTCCTAGCCATTCATCCATTTCCCTTTGACAATCCCGGAGTCACCTAGTGCAG,10600 fluorescence intensity (a.u.)
17,AGGTGTAATACCCTACTCCTGTGTGTCGATGTTCGTTGTCCGGAGTCACCTAGTGCAG,9280 fluorescence intensity (a.u.)
18,CACGTCACTTGTATTCACTAACACAATCTCTCATTAGACTCGGAGTCACCTAGTGCAG,10300 fluorescence intensity (a.u.)
19,CATAACTGATCACTTTCCTGCATATCCAGCATATATATACCGGAGTCACCTAGTGCAG,9160 fluorescence intensity (a.u.)
20,CCAGGCTTTGCGCGTCTATTCTGCCCTTTCTCCAACTCTTCGGAGTCACCTAGTGCAG,8220 fluorescence intensity (a.u.)
21,TGTGCGTGCTGTTGCTTTTTTGGATCTGGTGTGTTAGTTTCGGAGTCACCTAGTGCAG,11600 fluorescence intensity (a.u.)

# In a second layout: results already given.
row	Sequence	binding signal
8	GCCAAACTCATCACCTGCCAAGCCCATAGCATGTGTTCCACGGAGTCACCTAGTGCAG	8760 fluorescence intensity (a.u.)
9	GAGAGCTTTGCGGCGGGCATGCGGGTGGGGATTCACCGCGCGGAGTCACCTAGTGCAG	10600 fluorescence intensity (a.u.)
10	TCCTGGCCCATTTTCATTCACTCAGATGGTCTCATATATCCGGAGTCACCTAGTGCAG	8440 fluorescence intensity (a.u.)

# More entries.

row,Sequence,binding signal
1,TACATACTCCTACTCCGTAGTTTGCTGCTTTGTTGGATTCCGGAGTCACCTAGTGCAG,12900 fluorescence intensity (a.u.)
2,TTTTATACGGTTGGTTCCTATGTTCTCCTAAGTGTGAAAACGGAGTCACCTAGTGCAG,9200 fluorescence intensity (a.u.)
3,TTCACTGACAGGGGAGCATGGGGTGTGTGCTTATATAAACCGGAGTCACCTAGTGCAG,9130 fluorescence intensity (a.u.)
4,CATGTTAATTTGGGACGAGAGTCGGACTCCTATTTCCTTTCGGAGTCACCTAGTGCAG,8950 fluorescence intensity (a.u.)
5,TTCTCTATCTGGGCGTGTATTACTGTTTCCTTTCCCGATACGGAGTCACCTAGTGCAG,9170 fluorescence intensity (a.u.)
6,AATTTCTTACTGTACTTGTCATTCCCGGCCCGGATTGAATCGGAGTCACCTAGTGCAG,9980 fluorescence intensity (a.u.)
7,TAGAATCTACACTTGTTCATATCTATGCTTGTTCGTCAGTCGGAGTCACCTAGTGCAG,8860 fluorescence intensity (a.u.)
8,GCTGTCCTTGTCTTCTTTTTCTTTTTTTTTTTCCCTCCTGCGGAGTCACCTAGTGCAG,10600 fluorescence intensity (a.u.)
9,AATTTACATTGTAGTTACACCTCACTAACACACTATTTACCGGAGTCACCTAGTGCAG,8170 fluorescence intensity (a.u.)
10,GAACCCTAGGCTGTCGCGGATCCATCCCATCCCATCTCTTCGGAGTCACCTAGTGCAG,9620 fluorescence intensity (a.u.)
11,CGTACATTTTATATTGATGTATTTCCTCCTACATGCGTCTCGGAGTCACCTAGTGCAG,12100 fluorescence intensity (a.u.)
12,TGCCACCGCCGCCGCCAAGTTCCCGAGCAATTTTCCTGGCCGGAGTCACCTAGTGCAG,8030 fluorescence intensity (a.u.)
13,CGTTCTCTTCTAGTACTCCTCGTCTCTCTCCGTAGTCCGTCGGAGTCACCTAGTGCAG,10900 fluorescence intensity (a.u.)
14,TCTTAGGGCTAAACCACACAATAGCAGTGTTCTGTAGCAACGGAGTCACCTAGTGCAG,8550 fluorescence intensity (a.u.)
15,GCACGCATGCAGTTCCTTGACCAATTCTCACATCAACCACCGGAGTCACCTAGTGCAG,9100 fluorescence intensity (a.u.)
16,ACCAATGTGCCATCCCTTCGTCTTTCTGTACTCCTTTTGACGGAGTCACCTAGTGCAG,9730 fluorescence intensity (a.u.)
17,ACTCTCTTATATCCAAATTCGTTGTGTTATGATATATCACCGGAGTCACCTAGTGCAG,8530 fluorescence intensity (a.u.)
18,GCCTGCACAAAGGGGATTGGTCTTTGTCTTTGCAGATTTCCGGAGTCACCTAGTGCAG,10200 fluorescence intensity (a.u.)
19,CATTAGACCCTGAGGTTTTTGACTAGGCAGCCCACTTGTCCGGAGTCACCTAGTGCAG,9040 fluorescence intensity (a.u.)
20,TTCGATTTAGCTGCTTTCTTATCTTTTTCGTTAGCACATACGGAGTCACCTAGTGCAG,10700 fluorescence intensity (a.u.)
21,TTATGGCGTGTCAAACTTTCTTCCCATGGCTTTTTTGCCACGGAGTCACCTAGTGCAG,9970 fluorescence intensity (a.u.)
